At least one compound was matched to its structure with a doubt left.
Tested on: C57BL/6 mice
Test: body weight gain of high-fat diet induced obesity mice
Assay type: in vivo
Conditions: HF diet C57BL/6 mice, oral dosage 6.75 mg/kg/day; FIG. 2
Source text: Please refer to FIG. 2, C57BL/6 mice were grouped as four groups. (a) “Control” group (normal healthy animal group): the mice were fed with normal feed. (b) “High-fat (HF) diet” group (unhealthy negative control group): the mice were fed with high-fat-percentage feed (at least 40% fat) for a long-term period for inducing obesity and metabolic syndromes. (c) “HF diet+pioglitazone” group (clinical administration control group): the mice were fed with high-fat-percentage feed (at least 40% fat) for a long-term period for inducing obesity and metabolic syndromes and simultaneously administered with the clinically anti-diabetes TZD, pioglitazone (oral dosage: 6.75 mg/kg/day). […] The number of mice in the groups (a) to (d) were 5, 5, 6 and 13 respectively.
The method and conditions for performing Experiment 7 were similar to those in Experiments 3 and 4, wherein C57BL/6 mice were grouped as five groups, (a) “Control” group (n=6), (b) “HF diet” group (n=7); (c) “HF diet+pioglitazone” group (oral dosage: 6.75 mg/kg/day pioglitazone, n=8); (d) “HF diet+compound 26×1” group: the mice were fed with high-fat-percentage feed (at least 40% fat) for a long-term period for inducing obesity and metabolic syndromes and simultaneously administered with compound 26 (oral dosage: 6.75 mg/kg/day, n=11); and (e) “HF diet+compound 26×5” group (oral dosage: 33.75 mg/kg/day compound 26, n=12).

SMILES: CCc1ccc(CCOc2ccc(CC3SC(=O)NC3=O)cc2)nc1 (stereo not shown) [Pioglitazone, pioglitazone, reference compound]
- body weight gain: could inhibit the tendency of weight gain
